The values that follow come from publication PMC5996148.

Several values for one entry are separate records, joined by “and”; a condition that tells them apart may be missing. Identical values can stand only once. This is one part of the list.

Among the test systems are ERRFI1 (human); ETFB (human); ETHE1 (human); ETS1 (human); EXO1 (human); EXOC7 (human); EXOSC7 (human); Endophilin-B2 (human); Ermin (human); Erythropoietin (human); F3 (human).
What all share (test): protein microarray (ProtoArray v5.0), streptavidin-Alexa Fluor 647
Common to all, as to settings: 3'-biotin; 20 mM Tris (pH 7.5), 5 mM MgCl2, 100 mM KCl, 0.1% Tween-20, A/T-rich and random oligonucleotide blockers; temperature not stated; high values mean tight binding

For experiment [1], the system named is Ecto-NOX disulfide-thiol exchanger 2 (human).
For experiment [2], the system named is Elongation factor 1-gamma (human).
For experiment [3], the system named is Endoplasmic reticulum resident protein ERp27 (human).
The test system of experiment [4] is Endothelial protein C receptor (human).
Experiment [5] relates to Enhancer of yellow 2 transcription factor homolog (human).
Experiment [6] has as its system Epidermis-type lipoxygenase 3 (human).
Experiment [7] deals with Epididymal sperm-binding protein 1 (human).
The subject of experiment [8] is Eukaryotic translation initiation factor 3 subunit E (human).
Experiment [9] deals with Exocyst complex component 3 (human).

Turning to “GGGAGGCTGAGGCAGG [G4-1 biotinylated (PQS2)]”, the binding signal was -0.322 z-score in the experiment with ERRFI1 (human); -0.319 z-score in the experiment with ETFB (human); -0.352 z-score in the experiment with ETHE1 (human); -0.336 z-score in the experiment on ETS1 (human); -0.324 z-score in the experiment on EXO1 (human); -0.283 z-score with EXOC7 (human). Besides, the binding signal in the experiment with EXOSC7 (human) is -0.345 z-score; in experiment [1] it was -0.333 z-score; in experiment [2], -0.359 z-score; in the experiment with Endophilin-B2 (human) it was -0.321 z-score; in experiment [3], -0.276 z-score; in experiment [4], -0.333 z-score. The binding signal is -0.341 z-score in [5]; -0.317 z-score in experiment [6]; -0.241 z-score in [7]; -0.265 z-score and -0.302 z-score with Ermin (human); -0.354 z-score in the experiment with Erythropoietin (human); -0.348 z-score in [8]. Also, the binding signal is -0.363 z-score in experiment [9] and -0.312 z-score with F3 (human).
